Assay results: PubChem BioAssay AID504327 (National Center for Advancing Translational Sciences (NCATS), 2011)
Hit rate of the full screen: of about 390,000 compounds, about 820 (0.21%) were called active. Inconclusive results, whose numbers are uncertain, are shown with a selection of clear calls. The call rests on the fitted dose curve; in most records, active means well fitted inhibition curve with a large enough effect; inconclusive means small, poorly fitted or top-dose-only effect, or another doubt; inactive means no such curve, though single readings can be large or run the other way. Potencies of inconclusive entries are doubtful fits and often do not repeat.

The chains behind the UniProt entries cited, without tags or fusion partners.
UniProt Q92830, whole entry, looked up: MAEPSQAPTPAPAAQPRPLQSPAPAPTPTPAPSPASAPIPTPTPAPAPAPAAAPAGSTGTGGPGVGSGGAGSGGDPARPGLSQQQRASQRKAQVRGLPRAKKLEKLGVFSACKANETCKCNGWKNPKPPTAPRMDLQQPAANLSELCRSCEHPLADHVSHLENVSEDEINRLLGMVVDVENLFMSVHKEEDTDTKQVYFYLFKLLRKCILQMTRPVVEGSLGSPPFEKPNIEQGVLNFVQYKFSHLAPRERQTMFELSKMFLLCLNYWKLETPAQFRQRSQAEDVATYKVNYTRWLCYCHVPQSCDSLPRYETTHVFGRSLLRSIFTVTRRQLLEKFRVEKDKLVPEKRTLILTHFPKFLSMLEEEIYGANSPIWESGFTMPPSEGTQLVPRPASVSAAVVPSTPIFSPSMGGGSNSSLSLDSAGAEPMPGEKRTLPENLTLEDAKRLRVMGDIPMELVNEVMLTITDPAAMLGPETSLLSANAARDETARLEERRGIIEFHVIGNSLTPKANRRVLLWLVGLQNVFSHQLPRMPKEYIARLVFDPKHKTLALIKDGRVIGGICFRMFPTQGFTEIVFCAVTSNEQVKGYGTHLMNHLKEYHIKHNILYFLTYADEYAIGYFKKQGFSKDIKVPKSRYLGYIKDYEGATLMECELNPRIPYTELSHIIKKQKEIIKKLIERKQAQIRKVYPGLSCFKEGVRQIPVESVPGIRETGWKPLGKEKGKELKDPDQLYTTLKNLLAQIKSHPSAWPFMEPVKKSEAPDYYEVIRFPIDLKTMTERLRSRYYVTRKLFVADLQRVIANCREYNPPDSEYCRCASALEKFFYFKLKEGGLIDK

Biological target: Histone acetyltransferase KAT2A (Homo sapiens) (UniProt Q92830)
Test: qHTS Assay for Inhibitors of GCN5L2
Details: GCN5L2 HAT assay, ThioGlo1 CoA-SH fluorescence; activity change, negative = inhibition: at 58.9 µM (top of the series) unless noted
Method in brief: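 ThioGlo1-coupled HAT assay: 20nM GCN5L2, 70uM acetyl-CoA, 75uM H3(1-25) peptide, pH 7.5. Fluorescence read at 340/540nm at start and after 20 min at room temperature.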
On the % scale 0 is the no-effect control and ±100 the full control effect; potency means the concentration at half of the fitted maximal effect.

Row | Structure (SMILES) | Potency | activity change, negative = inhibition
1 | CCCCn1nc2cc(C(=O)NCC34CC5CC(CC(C5)C3)C4)ccc2c1OC | inconclusive: 25.1 µM [inhibitor, single point] | 
2 | Cc1ccccc1-c1nc2ccccc2o1 | inconclusive: 39.8 µM [inhibitor, single point] | 
3 | O=C(CSC1CC(=O)N(c2ccc(C(=O)O)cc2)C1=O)Nc1ccc2ccccc2c1 (stereo unspecified) | inconclusive: 5.01 µM [inhibitor, single point] | 
4 | COc1ccc(OC)c(/C=C2\Oc3cc(OCC(=O)N4CCC[C@H]4C(=O)O)ccc3C2=O)c1 | inconclusive: 39.8 µM [inhibitor, single point] | 
5 | CCC(CC)c1nnc(NC(=O)CCc2ccc(OC)cc2)s1 | inconclusive: 31.6 µM [inhibitor, single point] | 
6 | CC(C)(C)c1ccc(OCC(=O)NNC(=O)c2cccnc2)cc1 | inconclusive: 35.5 µM [inhibitor, single point] | 
7 | CCOC(=O)CCCc1ccc(/C(C)=N/NC(=S)NC)cc1 | inconclusive: 0.141 µM [inhibitor, full curve, poor fit] | 
8 | Cc1ccc(C)c(C(=O)NCCN(C)C)c1 |  | inactive: -8.4%
9 | CCOC(=O)C1CCCN(c2ncnc3c2cnn3-c2ccc(Cl)cc2)C1 (stereo unspecified) | inconclusive: 7.08 µM [inhibitor, single point] | 
10 | O=C1c2ccccc2C(=O)N1CCSc1n[nH]c(=S)s1 | inconclusive: 39.8 µM [inhibitor, single point] | 
11 | O=C(CNC(=O)N1CC(=O)Nc2ccccc21)Nc1nccs1 | inconclusive: 35.5 µM [inhibitor, partial curve] | 
12 | COC(=O)N/N=C/c1ccc(OC(=O)/C=C/c2ccco2)cc1 | inconclusive: 0.631 µM [inhibitor, full curve, poor fit] | 
13 | COc1ccc(C(=O)/C=C/c2cn(CC(O)CN3CCN(C)CC3)c3ccccc23)cc1OC (stereo unspecified) |  | inactive: -4.43%
14 | O=C(Nc1ccc(-c2cn3ccsc3n2)cc1)C1COc2ccccc2O1 (stereo unspecified) |  | inactive: -7.33%
15 | COc1cc2c(cc1OC)C(C)=NCC2 | inconclusive: 39.8 µM [inhibitor, single point] | 
16 | O=C1CN(C(=S)NC(=O)c2ccccc2[N+](=O)[O-])CCN1 | inconclusive: 0.112 µM [inhibitor, full curve, poor fit] | 
17 | O=C(O)C1CCCCC1C(=O)Nc1cccc(Cl)c1Cl (stereo unspecified) | inconclusive: 39.8 µM [inhibitor, single point] | 
18 | C=CCn1c(N)c(C(=O)OCCC)c2nc3ccccc3nc21 | inconclusive: 22.4 µM [inhibitor, single point] | 
19 | CSCC[C@H](NC(=O)[C@H](CC(C)C)NC(=O)CNC(=O)[C@H](Cc1ccccc1)N(C)C(=O)[C@H](Cc1ccccc1)NC(=O)[C@H](CC(=O)O)NC(=O)[C@@H](N)CC(=O)O)C(N)=O |  | inactive: 1.42%
20 | COc1cc(OC)c(NC(=O)CN2C(=O)CCn3nc(-c4cccn4C)cc32)cc1Cl | inconclusive: 3.16 µM [inhibitor, single point] | 
21 | CCn1c(N)c(C(=O)NCc2ccco2)sc1=S | inconclusive: 0.708 µM [inhibitor, partial curve, poor fit] | 
22 | CC[C@@H]1C(c2cccc(Cl)c2)=NN(c2ccccc2)[C@H]1C(=O)N1CCOC1=O | inconclusive: 31.6 µM [inhibitor, partial curve] | 
23 | CC(C)CCNC(=O)c1cccc(Nc2nc3ccccc3n3nnnc23)c1 |  | inactive: 2.72%
24 | CCOC(=O)CC(=O)CSc1nc2nc(C)cc(C)n2n1 |  | inactive: -3.72%

Molecules above containing an aryl thioether with sulfur outside any ring, in the order listed:
Row | Structure (SMILES) | Potency | activity change, negative = inhibition
10 | O=C1c2ccccc2C(=O)N1CCSc1n[nH]c(=S)s1 | inconclusive: 39.8 µM [inhibitor, single point] | 
24 | CCOC(=O)CC(=O)CSc1nc2nc(C)cc(C)n2n1 |  | inactive: -3.72%

Remaining list, next part

Row | Structure (SMILES) | Potency | activity change, negative = inhibition
25 | CCCNC(=O)c1ccc(N2CCC3(CC2)CC(c2ccccc2)=NO3)c(NC(=O)Cc2ccc(F)cc2)c1 |  | inactive: 0.282%
26 | Cc1cc(NC(=O)c2ccc(Br)o2)cc(-c2nc3ccccc3o2)c1O | inconclusive: 7.94 µM [inhibitor, full curve, poor fit] | 
27 | CN1CCN(c2ccnc(-c3ccoc3)n2)CC1 | inconclusive: 39.8 µM [inhibitor, single point] | 
28 | O=C(NCc1ccc(F)cc1)c1cc(-c2cccs2)on1 |  | inactive: -2.79%
29 | C=C1c2c(Cl)ccc(O)c2C(O)=C2C(=O)[C@@]3(O)C(O)=C(C(N)=O)C(=O)[C@@H](N(C)C)[C@@H]3[C@@H](O)[C@H]12 | active: 6.31 µM | 
30 | Cc1c(CC(=O)N2CCN(C(=O)C3COc4ccccc4O3)CC2)c(=O)oc2cc(O)c(Cl)cc12 (stereo unspecified) | inconclusive: 31.6 µM [inhibitor, single point] | 
31 | Cc1ccc(CC(=O)N(C)CC(=O)Nc2ccc(N3CCOCC3)cc2)cc1C | inconclusive: 20 µM [inhibitor, partial curve, poor fit] | 
32 | O=c1onc(-c2cccs2)n1Cc1ccccc1 | inconclusive: 39.8 µM [inhibitor, single point] | 
33 | Cc1nn(-c2ccccc2)c2nc(C(F)F)cc(C(F)F)c12 |  | inactive: -3.86%
34 | Clc1ccccc1-c1cncnc1NCc1cccs1 |  | inactive: -17%
35 | O=C(O)C1C2C=CC(O2)C1C(=O)Nc1ccc(S(=O)(=O)N2CCc3ccccc32)cc1 (stereo unspecified) |  | inactive: -16.8%
36 | Cc1ccc(C)c(N2CCN(C(=O)Nc3cn(CC(C)C)c(=O)c4ccccc34)CC2)c1 |  | inactive: -4.15%
37 | CC(=Nc1ccc(C)cc1)c1sc2ccccc2c1O | inconclusive: 39.8 µM [inhibitor, single point] | 
38 | CC(C)Cn1c(-c2ccc(F)cc2)n[nH]c1=S |  | inactive: -23.2%
39 | Cc1cc2c3nonc3ccc2n1-c1ccccc1 | inconclusive: 28.2 µM [inhibitor, single point] | 
40 | CC(=O)c1c(C)[nH]c(C(=O)Nc2cccc(C)n2)c1C | inconclusive: 39.8 µM [inhibitor, partial curve] | 
41 | Cc1cccc(Cn2ccn(Cc3ccc(Cl)cc3)c(=O)c2=O)c1 |  | inactive: -19.7%
42 | O=C(c1ccc2c3n(nc2c1)-c1ccccc1CO3)N1CCCCC1 | inconclusive: 7.08 µM [inhibitor, single point] | 
43 | Cc1ccc(C2c3c(-c4cc(C)ccc4O)n[nH]c3C(=O)N2Cc2ccco2)cc1 (stereo unspecified) |  | inactive: -23.5%
44 | COc1cc(C(=O)Nc2nc(C)cc(C)n2)cc(OC)c1OC | inconclusive: 10 µM [inhibitor, full curve, poor fit] | 
45 | COc1ccc(C(=O)Oc2c(Sc3ccc(Cl)cc3)c(C)nn2C(C)(C)C)cc1OC |  | inactive: -9.3%
46 | O=S(=O)(NCc1ccccc1)c1ccc(Cl)cc1 | inconclusive: 39.8 µM [inhibitor, single point] | 
47 | CCCCCCCCCCN1CCOCCOCCN(CCCCCCCCCC)CCOCCOCC1 |  | inactive: 5.48%
48 | CCC1COCCS(=O)(=O)N1Cc1cccc(C(F)(F)F)c1 (stereo unspecified) |  | inactive: -4.32%

Entries from the list above that contain a tert-butyl group (2):
Row | Structure (SMILES) | Potency | activity change, negative = inhibition
6 | CC(C)(C)c1ccc(OCC(=O)NNC(=O)c2cccnc2)cc1 | inconclusive: 35.5 µM [inhibitor, single point] | 
45 | COc1ccc(C(=O)Oc2c(Sc3ccc(Cl)cc3)c(C)nn2C(C)(C)C)cc1OC |  | inactive: -9.3%

(next part)

Row | Structure (SMILES) | Potency | activity change, negative = inhibition
49 | CCN(Cc1ccncc1)C(=O)c1ccco1 | inconclusive: 39.8 µM [inhibitor, single point] | 
50 | COC(=O)C(C)(N)Cc1ccc(O)cc1 (stereo unspecified) | inactive | 
51 | COCCn1c(SCc2ccccc2)nc2c1c(=O)[nH]c(=O)n2C | inconclusive: 0.398 µM [inhibitor, full curve, poor fit] | 
52 | CCOc1cccc(/C=N/N2C(=O)CSC2=S)c1O | inconclusive: 20 µM [inhibitor, partial curve] | 
53 | O=c1c2ccccc2nnn1CSc1ncnc2ccccc12 | inconclusive: 0.794 µM [inhibitor, single point] | 
54 | CCc1ccc(/C=C/C(=O)C2C(=O)c3ccccc3C2=O)cc1 | inconclusive: 0.708 µM [inhibitor, full curve, poor fit] | 
55 | O=C(NCc1nnc(SCC(=O)N2CCCCC2)o1)c1c(F)cccc1Cl | inconclusive: 1 µM [inhibitor, single point] | 
56 | C/C(Cl)=C/Cn1c(SCC(C)C)nc2c1c(=O)[nH]c(=O)n2C | inconclusive: 5.62 µM [inhibitor, single point] | 
57 | CN1CCN(C(=O)c2ccc3c(c2)N(Cc2cccc(Cl)c2)C(=O)c2ccccc2S3(=O)=O)CC1 | inactive | 
58 | CCCc1cc(C(=O)NCc2ccccc2)no1 | inconclusive: 39.8 µM [inhibitor, single point] | 
59 | O=C(NCCOc1ccccc1F)C1CCC(=O)N(CC2CCCCC2)C1 (stereo unspecified) | inconclusive: 8.91 µM [inhibitor, single point] | 
60 | COc1cccc(-c2nc(N3CCN(c4ccccc4)CC3)c3ccccc3n2)c1O | inconclusive: 1.78 µM [inhibitor, single point] | 
61 | CCCCOc1ccc(NC(=O)CCSc2nccn2C)cc1 |  | inactive: -3.01%
62 | COc1ccc(C2C=C(c3ccc(Cl)cc3)Nc3nc(NC(C)=O)nn32)cc1 (stereo unspecified) | inconclusive: 35.5 µM [inhibitor, single point] | 
63 | COc1ccc(Nc2ncnc3sc4c(c23)CCCC4)cc1 |  | inactive: -23.3%
64 | CCn1c(CC(=O)Nc2ccc(Cl)cc2)nnc1SCC(=O)N1CCOCC1 | inconclusive: 0.141 µM [inhibitor, full curve, poor fit] | 
65 | C=CCn1c(SCC(=O)NC2CC2)nnc1C1CC1 | inconclusive: 12.6 µM [inhibitor, partial curve, poor fit] | 
66 | CO/N=C/c1ccc(N2CCN(C(=O)c3ccc(C)cc3)CC2)c([N+](=O)[O-])c1 | inconclusive: 2.51 µM [inhibitor, single point] | 
67 | COc1ccc(OC)c(S(=O)(=O)n2cnc3ccccc32)c1 | inconclusive: 12.6 µM [inhibitor, single point] | 
68 | CCN(CC)C(=O)c1ccc2c(c1)N(Cc1ccc(C(F)(F)F)cc1)C(=O)c1ccccc1S2 |  | inactive: -27.7%
69 | O=C(Cc1cccc2ccccc12)Nc1c(F)cccc1F | inconclusive: 39.8 µM [inhibitor, single point] | 
70 | COc1ccc(NC(=O)c2ccco2)cc1NC(=O)COc1ccccc1[N+](=O)[O-] |  | inactive: -8.69%
71 | CCOc1ccc(/C=N/NC(=O)c2cc3c(OC)cc(OC)cc3[nH]2)cc1OC | inconclusive: 39.8 µM [inhibitor, single point] | 
